Laboratory results published in article PMC3305447, “A Peptidoglycan Fragment Triggers β-lactam Resistance in Bacillus licheniformis” (PLoS Pathogens, 2012).
For at least one entry, the source does not settle the construct or the ends of the probe. The comparison behind a weaker result is the experiment's own reference, which may not be listed here. Where a protein sequence is shown, tags need not be part of it.

Molecular target: T1, BlaI (Bacillus licheniformis) (UniProt P06555)
T1 sequence (looked up): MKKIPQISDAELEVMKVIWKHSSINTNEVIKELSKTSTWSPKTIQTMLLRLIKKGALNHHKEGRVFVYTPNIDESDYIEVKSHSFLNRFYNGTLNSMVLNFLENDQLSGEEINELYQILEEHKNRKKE
Experiment: EMSA
Conditions: 0.5 uM Cy5-OP1 + 13.5 uM repressor (ALF sequencer) or 2.5 uM DNA + 50 uM repressor (1% agarose), recombinant protein, residues 1-128, label: 5'-Cy5 on printed strand

GCATTTAAATCTTACATATGTAATACTTTC (double strand) [OP1 operator]
binding result (fraction F5 (300-600 Da) of induced extract): binds more weakly | binding result (gamma-D-Glu-L-Lys (dipeptide 2)): binds more weakly | binding result (gamma-D-Glu-m-A2pm (dipeptide 1)): binds more weakly | binding signal (bound OP/total OP) (induced BS995 cell extract, <=10 kDa ultrafiltrate): 0.32
